Test results as given in the supplement of paper PMC5949888.
Most values lie at the floor of the assay. Slopes are relative: functional sequences can read slightly below zero.

These substances were tested on Saccharomyces cerevisiae PS128 hsf1 delta, HSF1(1-493) fusion (assay: growth estimate (transactivation domain function in HSF1 fusion, heat-shock survival) (a.u. (slope of normalised read count over time)); higher = stronger growth at 37°C, i.e. more transactivation activity). Conditions: library: random library.
Method: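 Random 60-nt DNA library encoding peptides of up to 20 aa, fused to the C-terminus of yeast HSF1 residues 1-493 (C-terminal TAD deleted) and expressed from the native HSF1 promoter on a CEN plasmid in hsf1-deleted S. cerevisiae PS128. Cells were selected at 37°C on -trp 5-FOA plates for 0, 2, 4, 6 and 8 days and amplicons were sequenced. Growth estimate is the slope of a robust linear fit of total-sum-normalised read counts (normalised to the first time point) over time, using at least 2 replicates. Sequences are classed functional (TAD activity) above a threshold of -0.13, set from stop-codon control sequences.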
With ARFT the growth estimate was under -0.25. In the case of ARFTEHQILHSSCVIS, the growth estimate is reported as under -0.25. Substance ARGDIGDPRVGRGCRVA has a growth estimate of under -0.25. Work on ARGKFIAVSVEVTRCRGALI yielded a growth estimate of under -0.25. In the case of ARGRLHGTRGDEKEFDGRKQ, the growth estimate is reported as under -0.25. With ARGWSKCRAPSSAAATREGS the growth estimate was under -0.25. ARGYVTPVNSVPLALMQPLL gave a growth estimate of -0.204. For ARKIFFSTWCPCVRRQCTKL, the growth estimate was under -0.25. Substance ARLPAL has a growth estimate of under -0.25. In the case of ARLQRYRLWHKSTAVSNP, the growth estimate is reported as under -0.25. Substance ARLVEWCNGQWRGK has a growth estimate of under -0.25. ARMVWCYSDGIALD showed a growth estimate of under -0.25. In the case of ARNYKSRPCKSLPRIYRRRT, the growth estimate is reported as under -0.25. ARPIHKGLGVSVHFIKPKKV showed a growth estimate of under -0.25. With ARQG the growth estimate was under -0.25. For ARQVT, the growth estimate was under -0.25. Substance ARQYATVGHLYMTTILIHVA has a growth estimate of under -0.25. For ARRIIVPVSATATANTSCAD, the growth estimate was under -0.25. For ARRMTETT, the growth estimate was under -0.25. For ARRVQTTSAPDCSITLRPNG, the growth estimate was under -0.25. For ARRWGFWGYAGQL, the growth estimate was under -0.25. Substance ARS has a growth estimate of under -0.25. For ARSEFR, the growth estimate was under -0.25. Substance ARSHGLLFVISSVTLGLTLD has a growth estimate of under -0.25. ARSLGSP showed a growth estimate of under -0.25. For ARSVA, the growth estimate was under -0.25. Substance ARSVQHV has a growth estimate of under -0.25. Substance ARTEVRPHA has a growth estimate of under -0.25. Work on ARVGRSLALP yielded a growth estimate of under -0.25. For ARVLRR, the growth estimate was under -0.25. ARVVSSRQVTSAFKSPSYRQ was tested, and the growth estimate was under -0.25. Work on ARW yielded a growth estimate of under -0.25. With ARWSESYTWSALRTLLLGGA the growth estimate was under -0.25. Work on ARYELGSVGEPDSELIATDR yielded a growth estimate of under -0.25. Substance ARYYAPLYSRMRGVSPPPER has a growth estimate of under -0.25. ASACWETYRS was tested, and the growth estimate was -0.153. Substance ASCVVHDRDRLLHRSFR has a growth estimate of under -0.25. ASDEYGLLGPGTAGRSQDTA was tested, and the growth estimate was under -0.25. ASEGARAHKPLVWVSGGLLQ was tested, and the growth estimate was under -0.25. In the case of ASGA, the growth estimate is reported as under -0.25. In the case of ASGEIG, the growth estimate is reported as under -0.25. ASGLVYPDGVILGLVHTQSM showed a growth estimate of under -0.25. For ASGSLYQSTRTSVKGVYGSS, the growth estimate was under -0.25. For ASGTMHRSLSQRLMFLHLRG, the growth estimate was under -0.25. ASHGTYSSGI showed a growth estimate of -0.229. For ASHHSRKCW, the growth estimate was under -0.25. For ASHVCPTW, the growth estimate was under -0.25. ASKEPVERGQVACFPRELCH showed a growth estimate of under -0.25. With ASKGTVRARLCLSDLLSAWA the growth estimate was under -0.25. In the case of ASKIGADGMIL, the growth estimate is reported as under -0.25. Work on ASKTAIPQGVCTFGWVSGVS yielded a growth estimate of under -0.25. In the case of ASKVCYRCRKDSVGGTQ, the growth estimate is reported as under -0.25. Substance ASKVRAGHFPVYELLFGIVS has a growth estimate of under -0.25. ASLCR showed a growth estimate of under -0.25. With ASLELPVRSGTKPMIC the growth estimate was under -0.25. For ASLLGTALQDPLEAA, the growth estimate was under -0.25. Substance ASLNCRRVCAGPGTFGNAVL has a growth estimate of under -0.25. With ASLVAGRRAQCV the growth estimate was under -0.25. In the case of ASLVPVETAVSFAP, the growth estimate is reported as under -0.25. For ASLYR, the growth estimate was under -0.25. ASMSGRRYHQA was tested, and the growth estimate was under -0.25. Work on ASMTGLGLLWGIRPAAYPGL yielded a growth estimate of under -0.25. Work on ASP yielded a growth estimate of under -0.25. Substance ASPFVC has a growth estimate of under -0.25. With ASPLCTSVQRTHMSRGDFTA the growth estimate was under -0.25. For ASPRTRQND, the growth estimate was under -0.25. Substance ASQSNMPY has a growth estimate of under -0.25. With ASQVRDV the growth estimate was under -0.25. Substance ASR has a growth estimate of under -0.25. Work on ASRGEEARQATDLE yielded a growth estimate of under -0.25. Work on ASRMVHNTCLSQILLDHVGP yielded a growth estimate of under -0.25. ASRNVKVRGNM gave a growth estimate of under -0.25. Work on ASRPRI yielded a growth estimate of under -0.25. With ASRREKFKNLLRRGSASFCG the growth estimate was under -0.25. For ASRRS, the growth estimate was under -0.25. In the case of ASRSVCFPGCLSRPVLAGDD, the growth estimate is reported as under -0.25. ASSDNSPPPRVRK gave a growth estimate of under -0.25. ASSIPCGVI was tested, and the growth estimate was under -0.25. For ASSKQTGSISH, the growth estimate was under -0.25. With ASSKRGQSQSGLLLQRRPFT the growth estimate was under -0.25. In the case of ASSMGSGQVYFRLGKLG, the growth estimate is reported as under -0.25. Substance ASSSK has a growth estimate of under -0.25. ASVLGWLCRTGSVCT showed a growth estimate of under -0.25.
